Laboratory results taken from PubChem BioAssay AID2517 (National Center for Advancing Translational Sciences (NCATS), 2010).
Hit rate of the full screen: of about 350,000 compounds, about 1,200 (0.34%) were called active. The shares of active, inactive and inconclusive entries below differ from those in the screen. The call rests on the fitted dose curve; in most records, active means well fitted inhibition curve with a large enough effect; inconclusive means small, poorly fitted or top-dose-only effect; inactive means no such curve, though single readings can be large or run the other way. Potencies of inconclusive entries are doubtful fits and often do not repeat.

Sequences of proteins named here, by UniProt entry; tags and fusion partners are left off.
UniProt P27695, whole entry, looked up: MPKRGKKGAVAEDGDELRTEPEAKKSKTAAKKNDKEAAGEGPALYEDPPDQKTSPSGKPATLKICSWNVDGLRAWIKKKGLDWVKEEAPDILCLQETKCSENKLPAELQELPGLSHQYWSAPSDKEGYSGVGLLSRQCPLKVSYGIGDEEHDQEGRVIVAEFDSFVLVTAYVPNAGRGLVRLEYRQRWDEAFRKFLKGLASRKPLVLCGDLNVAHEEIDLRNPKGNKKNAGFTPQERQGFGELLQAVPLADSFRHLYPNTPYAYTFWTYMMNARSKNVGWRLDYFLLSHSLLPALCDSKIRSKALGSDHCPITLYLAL

What follows are molecules tested against DNA repair nuclease/redox regulator APEX1 (Homo sapiens) (UniProt P27695) (assay: qHTS Assay for Inhibitors of the Human Apurinic/apyrimidinic Endonuclease 1 (APE1)). Conditions: recombinant APE1, TAMRA/BHQ-2 abasic DNA cleavage fluorescence; activity change, negative = inhibition: at 65.8 µM (top of the series).
How it was run: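 Measures dequenching upon AP-site incision of a 5'-TAMRA/3'-BHQ-2 THF-containing duplex, 50 nM; human APE1 0.75 nM after 15 min room-temperature exposure to compound; kinetic three-point read at one-minute spacing.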
Further: nearly all actives have a fitted effect of over 55% in size.
Potency means the concentration at half of the fitted maximal effect.
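Wherever activity change, negative = inhibition is given: plate controls were vehicle for no effect and reference inhibitor for full effect.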

SMILES | Potency | activity change, negative = inhibition
C=C1C[C@H](O[C@@H]2O[C@H](CO)[C@@H](O)[C@H](O)[C@H]2O)[C@@H]2[C@H](OC(=O)[C@H]2C)[C@H]2[C@H](C)[C@@H](O)C[C@@H]12 | inconclusive: 18.9 µM [inhibitor, single point] | 
CCOC(=O)c1ccc(S(=O)(=O)NCC(C)(C)N2CCOCC2)cc1 | inconclusive: 7.94 µM [inhibitor, single point] | 
CCOC(=O)C1CCCN(C(=S)NC(=O)c2cc(Br)ccc2Cl)C1 (centres undefined) | inconclusive: 8.44 µM [inhibitor, single point] | 
O=C(CN1C(=O)CSc2cc(S(=O)(=O)N3CCCCCC3)ccc21)NCCc1ccccc1 | inactive | 
Cc1nnsc1-c1nnc(SCC(=O)c2ccc(F)cc2)n1C1CC1 | inconclusive: 7.08 µM [inhibitor, single point] | 
COc1ccc(Sc2ccccc2CN(C)C)cc1OC | inactive | 
CC(/C=C/c1ccccc1)=N\NC(=O)C1CC1(C)c1ccccc1 (centres undefined) | inconclusive: 44.7 µM [inhibitor, single point] | 
CCn1ncc(Br)c1C(=O)Nc1ccc(F)c([N+](=O)[O-])c1 | inconclusive: 14.1 µM [inhibitor, partial curve, poor fit] | 
Cc1ccc(C(=O)Nc2nc(C)c(C(=O)N(C)C)s2)o1 | inactive | 
CC1=C(C(=O)OCc2ccc3c(c2)OCO3)C(c2cccc([N+](=O)[O-])c2)NC(=O)N1 (centres undefined) | inconclusive: 0.0794 µM [inhibitor, full curve, poor fit] | 
Cc1cc(N/C=C(\C#N)S(=O)(=O)c2ccc(Cl)cc2)nc(C)n1 | inconclusive: 31.6 µM [inhibitor, single point] | 
CCCN(CCC)S(=O)(=O)c1ccc(C(=O)Nc2ccc(OCC(=O)N3CCOCC3)cc2)cc1 | inactive | 
COCCOC(=O)c1c(C)oc2ccc(NS(=O)(=O)c3cccs3)cc12 | inconclusive: 25.1 µM [inhibitor, single point] | 
COc1ccc(OCC(O)Cn2c(Br)nc3c2c(=O)[nH]c(=O)n3C)cc1 (centres undefined) | inconclusive: 0.0032 µM [inhibitor, full curve, poor fit] | 
COC(=O)c1cnc(SCc2ccc(C)cc2)n1C | inconclusive: 22.4 µM [inhibitor, single point] | 
CCOC(=O)N1CCN(C(=O)Cn2ncc3ccccc32)CC1 | inconclusive: 11.2 µM [inhibitor, partial curve] | 
Cn1c(N)c(C(=O)COC(=O)c2cc(C(F)(F)F)nc3ccccc23)c(=O)n(Cc2ccccc2)c1=O | inconclusive: 0.0447 µM [inhibitor, full curve, poor fit] | 
COC(=O)c1ccc(N/C=C\C(=O)c2ccc3c(c2)OCO3)cc1 | inconclusive: 28.2 µM [inhibitor, single point] | 
C=C(C)CC1(c2ccccc2)Oc2ccccc2-c2nc3cc(Cl)c(Cl)cc3nc21 (centres undefined) |  | inactive: -4.37% [at 12.4 µM]
COC(=O)[C@@H]1C[C@H]1[C@@H](NC(=O)c1ccc(Br)cc1)c1ccccc1 | inactive | 

SMILES | Potency | activity change, negative = inhibition
CCOc1ccc(S(=O)(=O)N(C(=O)c2ccco2)c2cc3sc(=O)oc3c3ccccc23)cc1 | inactive | 
O=C(O)c1ccc(N/N=C/c2cc3c(cc2[N+](=O)[O-])OCO3)cc1 | inconclusive: 7.94 µM [inhibitor, full curve] | 
CCC1(CC)C(=O)N(C)C(=O)NC1=Nc1ccccc1 | inconclusive: 1.78 µM [inhibitor, full curve, poor fit] | 
CCOc1ccccc1Oc1coc2cc(OCC(=O)O)ccc2c1=O | inconclusive: 8.91 µM [inhibitor, partial curve] | 
CN(C)c1ccc(NC2=C([N+](=O)[O-])CS(=O)(=O)C2)cc1 | inactive | 
CC(=O)Oc1ccc(C(=O)Nc2cccc(-c3nnc(-c4ccco4)o3)c2)cc1 | inconclusive: 5.01 µM [inhibitor, single point] | 
Nc1nonc1-c1nc2ccccc2n1CC(=O)N/N=C/c1ccc(-c2cccc(C(=O)O)c2)o1 | inconclusive: 28.2 µM [inhibitor, partial curve] | 
O=C(CNC(=O)C1COc2ccccc2O1)N/N=C/c1ccc(O)cc1O (centres undefined) | inconclusive: 8.91 µM [inhibitor, single point] | 
COc1cc(NS(=O)(=O)c2ccc(NC(=S)NC(=O)/C=C/c3ccc(OC)c(OC)c3)cc2)ncn1 | inconclusive: 39.8 µM [inhibitor, single point] | 
CC1CCCCN1CC(O)COCCC12CC3CC(CC(C3)C1)C2 (centres undefined) | inconclusive: 50.1 µM [inhibitor, partial curve, poor fit] | 
CCOC(=O)c1cc([N+](=O)[O-])sc1NC(=O)CC | inconclusive: 7.94 µM [inhibitor, single point] | 
CC(C)(C)OC(=O)CNC(=O)c1[nH]cnc1C(=O)N[C@@H](CCCCNC(=O)OC(C)(C)C)C(=O)OC(C)(C)C | inconclusive: 14.1 µM [inhibitor, partial curve] | 
CCOC(=O)c1c(C)[nH]c(C(=O)COC(=O)CSC)c1C | inconclusive: 3.16 µM [inhibitor, single point] | 
CCOc1ccc(/C=C2\SC(=S)N(C(C(=O)O)c3ccccc3)C2=O)cc1OC (centres undefined) | inconclusive: 28.2 µM [inhibitor, single point] | 
CCOc1ccc(N2C(=O)CC(Sc3ncccn3)C2=O)cc1 (centres undefined) | inconclusive: 22.4 µM [inhibitor, single point] | 
CCC(Sc1nc2ccsc2c(=O)n1Cc1ccc(C(=O)O)cc1)C(=O)Nc1ccc(C)c(Cl)c1 (centres undefined) | inactive | 
O=C(O)CNC(=O)CC1S/C(=N/N=C2\CSC(=O)N2)NC1=O (centres undefined) | inconclusive: 15.8 µM [inhibitor, partial curve, poor fit] | 
NC(=O)c1ccc(N2CCN(c3ccc(O)cc3)CC2)c([N+](=O)[O-])c1 | inconclusive: 39.8 µM [inhibitor, single point] | 
CC(C)COC(=O)n1c(SCC(N)=O)nc2ccccc21 | inconclusive: 89.1 µM [inhibitor, partial curve, poor fit] | 

As a working copy, 2 of the compounds above.
SMILES | Potency | activity change, negative = inhibition
COc1cc(NS(=O)(=O)c2ccc(NC(=S)NC(=O)/C=C/c3ccc(OC)c(OC)c3)cc2)ncn1 | inconclusive: 39.8 µM [inhibitor, single point] | 
CC1CCCCN1CC(O)COCCC12CC3CC(CC(C3)C1)C2 (centres undefined) | inconclusive: 50.1 µM [inhibitor, partial curve, poor fit] | 
